PubChem BioAssay AID1259308 – NCATS, 2017
Aim: 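Knock-downs that increase output of a recombinant reporter protein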 (primary screen). Cell system: human HEK293 embryonic kidney cells stably expressing firefly luciferase (HEK-CMV-Luc2-Hygro). Reagent: single siRNA against human genes, 0.8 pmol siRNA per well. Duration: 72 h. Read-out: 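Reporter luminescence and viable-cell signal on separate replicate plates, given as percent of non-targeting control and median/MAD z-scores, plus per-cell luciferase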. Direction: total luciferase, z-score and total luciferase, % of control: higher = more reporter protein produced; luciferase per cell, z-score: higher = more reporter output per viable cell. Call rule: 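Active when the median/MAD z-score for overall luciferase is greater than 3; a gene was taken forward for validation with new siRNAs if at least two of its three siRNAs passed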. Calls: active = raised luciferase; inactive = no rise.
The whole screen tested about 59,000 reagents; below is a random part of them. Over the whole deposit, about 1,510 (2.6%) got an active call. 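Calls use total luciferase alone and ignore viability, so some active siRNAs may act by altering cell number.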 Entries without a mark were called inactive. Reagents against one gene are numbered here. Not all columns of the deposit are shown.

gene symbol	siRNA no.	total luciferase, z-score	total luciferase, % of control	luciferase per cell, z-score
VMA21 (GeneID 203547)	1	-1.93	43.5	-1.49
VMA21 (GeneID 203547)	2	1.17	105	0.46
VMA21 (GeneID 203547)	3	1.75	117	2.08
LMO7DN (GeneID 729420)	1	1.85	119	1.6
LMO7DN (GeneID 729420)	2	-0.312	75.7	-0.522
LMO7DN (GeneID 729420)	3	0.149	84.9	-0.49
LINC02145 (GeneID 401172)	1	0.141	84.7	0.468
LINC02145 (GeneID 401172)	2	0.116	84.2	0.461
LINC02145 (GeneID 401172)	3	-0.0385	81.1	-0.547
GFY (GeneID 100507003)	1	2.04	122	1.59
GFY (GeneID 100507003)	2	0.639	94.6	1.02
GFY (GeneID 100507003)	3	-0.475	72.4	-1.13
MARCHF3 (GeneID 115123)	1	6.09 (active)	203	3.74
MARCHF3 (GeneID 115123)	2	-1.22	57.5	-0.497
MARCHF3 (GeneID 115123)	3	2.23	126	1.14
TMEM140 (GeneID 55281)	1	-0.981	62.4	-0.67
TMEM140 (GeneID 55281)	2	-0.916	63.7	-1.23
TMEM140 (GeneID 55281)	3	5.45 (active)	190	2.51
LINC01011 (GeneID 401232)	1	2.93	140	3
LINC01011 (GeneID 401232)	2	0.141	84.7	0.593
LINC01011 (GeneID 401232)	3	-1.29	56.3	-0.927
ZNF773 (GeneID 374928)	1	-0.517	71.6	-0.232
ZNF773 (GeneID 374928)	2	1.37	109	1.6
ZNF773 (GeneID 374928)	3	0.383	89.5	0.559
ACOT13 (GeneID 55856)	1	-2.56	30.9	-1.91
ACOT13 (GeneID 55856)	2	-0.694	68.1	-1.04
ACOT13 (GeneID 55856)	3	-1.25	57	-1.96
MT1G (GeneID 4495)	1	-0.0788	80.3	-0.213
MT1G (GeneID 4495)	2	0.241	86.7	-0.614
MT1G (GeneID 4495)	3	-1.55	51	-1.44
IRX2-DT (GeneID 153571)	1	-0.0413	81.1	-0.567
IRX2-DT (GeneID 153571)	2	-0.429	73.4	-1.06
IRX2-DT (GeneID 153571)	3	-1.73	47.6	-2.21
BCRP3 (GeneID 644165)	1	0.0855	83.6	0.488
BCRP3 (GeneID 644165)	2	-0.42	73.5	-0.356
BCRP3 (GeneID 644165)	3	-2.95	23.3	-0.65
LINC01114 (GeneID 284998)	1	1.49	112	1.63
LINC01114 (GeneID 284998)	2	-0.756	66.9	-0.0557
LINC01114 (GeneID 284998)	3	-0.71	67.8	-0.707
SRSF2 (GeneID 6427)	1	-0.299	75.9	-0.645
SRSF2 (GeneID 6427)	2	0.0458	82.8	-0.232
SRSF2 (GeneID 6427)	3	0.452	90.9	1.35
WNT10A (GeneID 80326)	1	0.436	90.6	-0.258
WNT10A (GeneID 80326)	2	1.17	105	0.939
WNT10A (GeneID 80326)	3	1.74	116	0.315
IFT43 (GeneID 112752)	1	0.809	98	0.244
IFT43 (GeneID 112752)	2	-0.254	76.8	-0.592
IFT43 (GeneID 112752)	3	-0.189	78.1	-0.525
CLTCL1 (GeneID 8218)	1	-0.779	66.4	-0.358
CLTCL1 (GeneID 8218)	2	-0.581	70.3	-0.495
CLTCL1 (GeneID 8218)	3	-1.04	61.2	-0.469
CLDN22 (GeneID 53842)	1	0.562	93.1	0.0236
CLDN22 (GeneID 53842)	2	1.47	111	1.68
CLDN22 (GeneID 53842)	3	1.84	118	2.55
SMS (GeneID 6611)	1	-0.324	75.4	-0.0865
SMS (GeneID 6611)	2	-1.64	49.2	-2.04
SMS (GeneID 6611)	3	0.548	92.8	0.306
NCKAP1 (GeneID 10787)	1	-1.06	60.7	-1.6
NCKAP1 (GeneID 10787)	2	-1.23	57.5	-1.61
NCKAP1 (GeneID 10787)	3	-0.895	64.1	-1.99
PQBP1 (GeneID 10084)	1	0.564	93.1	1.13
PQBP1 (GeneID 10084)	2	0.409	90	2.24
PQBP1 (GeneID 10084)	3	2.24	126	2.8
LINC02915 (GeneID 400360)	1	0.376	89.4	1.18
LINC02915 (GeneID 400360)	2	-0.0962	80	0.242
LINC02915 (GeneID 400360)	3	3.73 (active)	156	2.17
RPL31P45 (GeneID 729308)	1	1.14	105	1.2
RPL31P45 (GeneID 729308)	2	-0.627	69.4	-0.787
RPL31P45 (GeneID 729308)	3	0.12	84.3	0.699
PCYT2 (GeneID 5833)	1	-0.17	78.5	-0.27
PCYT2 (GeneID 5833)	2	0.51	92	0.15
PCYT2 (GeneID 5833)	3	0.396	89.8	0.558
OR52A1 (GeneID 23538)	1	0.323	88.3	0.616
OR52A1 (GeneID 23538)	2	-0.127	79.4	-0.733
OR52A1 (GeneID 23538)	3	0.727	96.3	0.374

Laid out differently: results already given
gene symbol | siRNA no. | total luciferase, z-score | total luciferase, % of control | luciferase per cell, z-score
ACOT13 (GeneID 55856) | 2 | -0.694 | 68.1 | -1.04
ACOT13 (GeneID 55856) | 3 | -1.25 | 57 | -1.96
MT1G (GeneID 4495) | 1 | -0.0788 | 80.3 | -0.213
MT1G (GeneID 4495) | 2 | 0.241 | 86.7 | -0.614
MT1G (GeneID 4495) | 3 | -1.55 | 51 | -1.44
IRX2-DT (GeneID 153571) | 1 | -0.0413 | 81.1 | -0.567
IRX2-DT (GeneID 153571) | 2 | -0.429 | 73.4 | -1.06
IRX2-DT (GeneID 153571) | 3 | -1.73 | 47.6 | -2.21
BCRP3 (GeneID 644165) | 1 | 0.0855 | 83.6 | 0.488
BCRP3 (GeneID 644165) | 2 | -0.42 | 73.5 | -0.356
BCRP3 (GeneID 644165) | 3 | -2.95 | 23.3 | -0.65
LINC01114 (GeneID 284998) | 1 | 1.49 | 112 | 1.63
LINC01114 (GeneID 284998) | 2 | -0.756 | 66.9 | -0.0557
